In patent US20120039904A1 (Kyowa Kirin, published 2012) one finds binding data, which are given here for two molecules.

Substitutions are numbered along the chain they refer to. These are yes or no findings as the source states them, for the method shown. Some results given as binding are weak or reduced against the parent protein; the word gives no strength. Sequences can lack the tags named with a protein.

The target of test [1] is T1, mouse EL3 type ASCT2-myc/His (mouse/human chimeric ASCT2), expressed on CHO cells (human/mouse chimera) (UniProt Q15758).
T1 sequence: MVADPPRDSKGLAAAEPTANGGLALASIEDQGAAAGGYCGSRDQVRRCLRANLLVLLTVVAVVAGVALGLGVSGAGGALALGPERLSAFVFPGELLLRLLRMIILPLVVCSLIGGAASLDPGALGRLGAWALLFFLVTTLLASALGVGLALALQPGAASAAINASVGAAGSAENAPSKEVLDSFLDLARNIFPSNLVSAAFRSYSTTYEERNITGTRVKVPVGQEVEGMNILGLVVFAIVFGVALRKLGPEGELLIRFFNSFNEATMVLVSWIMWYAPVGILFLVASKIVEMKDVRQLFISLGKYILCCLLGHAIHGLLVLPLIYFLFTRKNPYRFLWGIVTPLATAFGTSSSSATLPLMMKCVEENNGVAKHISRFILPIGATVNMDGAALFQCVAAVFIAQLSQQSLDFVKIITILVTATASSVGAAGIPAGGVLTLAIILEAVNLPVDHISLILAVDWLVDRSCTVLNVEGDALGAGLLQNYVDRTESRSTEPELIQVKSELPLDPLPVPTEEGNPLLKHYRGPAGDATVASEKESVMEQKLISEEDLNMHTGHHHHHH
As to the kind of experiment: flow cytometry on mEL3/CHO cells; '+' = presence of reactivity.

In test [2] the target is T2, mouse EL1 type ASCT2-myc/His (mouse/human chimeric ASCT2), expressed on CHO cells (human/mouse chimera) (UniProt Q15758).
T2 sequence: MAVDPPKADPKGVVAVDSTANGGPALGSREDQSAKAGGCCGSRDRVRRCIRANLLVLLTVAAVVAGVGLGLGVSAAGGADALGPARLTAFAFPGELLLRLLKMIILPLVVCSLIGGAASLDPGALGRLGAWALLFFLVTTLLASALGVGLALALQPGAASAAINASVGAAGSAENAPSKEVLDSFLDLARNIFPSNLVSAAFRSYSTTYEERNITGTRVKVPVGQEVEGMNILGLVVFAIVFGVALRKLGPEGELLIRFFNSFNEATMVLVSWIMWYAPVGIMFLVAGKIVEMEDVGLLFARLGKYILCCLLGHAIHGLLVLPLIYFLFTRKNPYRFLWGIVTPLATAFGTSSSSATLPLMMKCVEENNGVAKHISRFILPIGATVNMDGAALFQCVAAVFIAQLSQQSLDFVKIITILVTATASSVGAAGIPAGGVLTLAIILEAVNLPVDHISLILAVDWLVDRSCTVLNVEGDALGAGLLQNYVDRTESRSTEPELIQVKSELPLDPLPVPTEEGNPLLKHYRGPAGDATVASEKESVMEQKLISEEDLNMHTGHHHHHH
Description: flow cytometry on mEL1/CHO cells; '+' = presence of reactivity.

B1: anti-ASCT2 monoclonal antibody KM4008 (antibody, V domains shown)
VH: QIQLVQSGPELKKPGETVKISCKASGYTFTTFGMSWVKQVPGKGLKWMGWIHTYAGVPIYGDDFKGRFAFSLETSASTAYLQINNVKNEDTATYFCARRSDNYRYFFDYWGQGTTLTVSS
VL: DIQMTQTTSSLSASLGDRVTISCRASQDIRNYLNWYQRKPHGTVKLLIYYTSRLHSGVPSRFSGSGSGTDYSLTISNLEQEDIATYFCQQGHTLPPTFGGGTKLEIKR
notes: mouse IgG3, kappa (amplified with a mouse Ig kappa primer)
With B1, the binding entry in test [1] and in test [2] was “binds” in each case.

B2: anti-ASCT2 monoclonal antibody KM4012 (antibody, mouse IgG2b, V domains shown)
VH: B1 VH with F32Y, V40T, A55S, F64S, A76G, T78I, N102G
VL: B1 VL with T7I, R38Q, H41D, H92N
notes: mouse IgG2b, kappa
For B2, the binding result in test [1] and in test [2] was “binds” each time.
